Measured data: PubChem BioAssay AID504774 (Drosophila RNAi Screening Center, 2011)
The screen tested about 23,000 reagents; this is an unselected part of those with a known target gene and a result. 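Values are quantile-normalised luminescence on an arbitrary scale; higher means more cells surviving MMS.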 A plus sign joins genes that one reagent is predicted to hit.

- Assay: 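Knock-downs that shift viability of MMS-exposed cells relative to untreated ones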 (primary screen)
- Cell system: Drosophila Kc167 cells
- Knock-down reagent: long dsRNA against Drosophila genes, about 0.25 µg dsRNA per well
- Timing: about 6 days: 3 days knock-down, then 3 days with or without MMS
- Challenge: methyl methanesulphonate 0.004% (w/v) for 3 days after knock-down
- Detection: 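ATP-dependent luminescence as a measure of live cells in MMS-exposed wells, quantile normalised within each plate, with replicate values also given as a mean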
- Scale: mean viability with MMS and viability with MMS: higher = more surviving cells after MMS

gene	amplicon	mean viability with MMS	viability with MMS, replicate 1	viability with MMS, replicate 2
Or49a (Odorant receptor 49a)	DRSC07493	3.48e6	4.01e6	3.93e6
CG33523	DRSC09814	3.41e6	3.80e6	3.92e6
CG33523	DRSC22155	3.54e6	4.03e6	4.00e6
Prosbeta3 (Proteasome beta3 subunit)	DRSC16801	3.23e6	3.72e6	3.70e6
CG17562	DRSC15243	3.54e6	4.06e6	4.00e6
PIG-U (Phosphatidylinositol glycan anchor biosynthesis class U)	DRSC02193	3.35e6	3.77e6	3.77e6
CG32733 (retired record) + CG32797	DRSC17705	3.47e6	3.98e6	3.90e6
RluA-1 (RluA pseudouridine synthase 1)	DRSC02240	3.51e6	3.86e6	4.12e6
RluA-1 (RluA pseudouridine synthase 1)	DRSC03060	3.48e6	4.00e6	3.89e6
RpL15 (Ribosomal protein L15)	DRSC20963	3.09e6	3.69e6	3.66e6
CG15705	DRSC06576	3.56e6	4.10e6	3.96e6
Ir68b (Ionotropic receptor 68b)	DRSC10251	3.55e6	3.99e6	4.05e6
B9d1	DRSC14993	3.58e6	4.08e6	4.05e6
CG7546	DRSC08885	3.58e6	3.99e6	4.12e6
CG7546	DRSC10871	3.55e6	4.01e6	4.06e6
CG7546	DRSC22148	3.55e6	4.00e6	4.04e6
CG31715	DRSC21607	3.76e6	4.31e6	4.17e6
PH4alphaSG2 (prolyl-4-hydroxylase-alpha SG2)	DRSC15037	3.65e6	4.13e6	4.14e6
CG6118	DRSC15968	2.77e6	3.52e6	3.53e6
CG6118	DRSC23197	3.57e6	4.04e6	4.08e6
GstT2 (Glutathione S transferase T2)	DRSC06244	3.48e6	3.95e6	3.97e6
14-3-3epsilon	DRSC16370	3.43e6	3.99e6	3.82e6
ClC-c (Chloride channel-c)	DRSC10499	3.56e6	3.96e6	4.11e6
Snr1 (Snf5-related 1)	DRSC12369	3.55e6	4.03e6	4.04e6
CanB2 (Calcineurin B2)	DRSC07355	2.02e6	4.16e6	
CG32687	DRSC18210	3.53e6	4.06e6	3.92e6
CG32687	DRSC18237	3.50e6	4.00e6	3.93e6
Mulk (Multi-substrate lipid kinase)	DRSC02658	3.51e6	4.04e6	3.93e6
Zip99C (Zinc/iron regulated transporter-related protein 99C)	DRSC16320	3.81e6	4.31e6	4.32e6
CG8051	DRSC20077	3.51e6	4.01e6	3.97e6
mldr (mulder)	DRSC18100	3.57e6	4.06e6	4.05e6
eRF1 (eukaryotic translation release factor 1)	DRSC11779	3.37e6	3.81e6	3.81e6
eIF3e (eukaryotic translation initiation factor 3 subunit e)	DRSC11199	3.02e6	3.60e6	3.53e6
CG4297	DRSC00651	3.47e6	3.85e6	4.02e6
CG7084	DRSC16194	3.66e6	4.11e6	4.14e6
Nhe1 (Na[+]/H[+] hydrogen exchanger 1)	DRSC00762	3.36e6	3.65e6	3.83e6
CG11608	DRSC14334	3.50e6	4.02e6	3.94e6
CG7512	DRSC10863	3.44e6	3.91e6	3.86e6
Npc2e (Niemann-Pick type C-2e)	DRSC15522	3.59e6	4.02e6	4.09e6
Npc2e (Niemann-Pick type C-2e)	DRSC22338	3.42e6	3.87e6	3.95e6
RhoGEF3 (retired record)	DRSC08266	3.48e6	3.95e6	3.93e6
RhoGEF3 (retired record)	DRSC08353	3.48e6	3.98e6	3.91e6

4 entries already listed, ordered by “viability with MMS, replicate 2”, lowest first.
gene	amplicon	mean viability with MMS	viability with MMS, replicate 1	viability with MMS, replicate 2
Prosbeta3 (Proteasome beta3 subunit)	DRSC16801	3.23e6	3.72e6	3.70e6
CG33523	DRSC09814	3.41e6	3.80e6	3.92e6
Or49a (Odorant receptor 49a)	DRSC07493	3.48e6	4.01e6	3.93e6
CG33523	DRSC22155	3.54e6	4.03e6	4.00e6

More records follow.
gene	amplicon	mean viability with MMS	viability with MMS, replicate 1	viability with MMS, replicate 2
MCTS1 (Malignant T cell amplified sequence 1)	DRSC18393	3.68e6	4.05e6	4.41e6
Prim1 (DNA primase subunit 1)	DRSC11137	3.28e6	3.65e6	3.70e6
htk (hat-trick)	DRSC20029	3.30e6	3.83e6	3.72e6
htk (hat-trick)	DRSC20031	3.52e6	4.05e6	3.95e6
CG17681	DRSC02632	3.50e6	4.02e6	3.93e6
CG17266	DRSC04979	3.41e6	3.79e6	3.90e6
CG17266	DRSC22368	3.44e6	3.87e6	3.98e6
CG32686	DRSC17645	3.43e6	3.92e6	3.87e6
LeuRS-m (Leucyl-tRNA synthetase, mitochondrial)	DRSC08595	3.54e6	4.04e6	3.98e6
CG13933	DRSC08402	3.46e6	3.84e6	4.01e6
SIFa (SIFamide)	DRSC04480	3.52e6	4.08e6	3.89e6
HLH4C (Helix loop helix protein 4C)	DRSC18670	3.70e6	4.19e6	4.20e6
HLH4C (Helix loop helix protein 4C)	DRSC21322	3.59e6	3.89e6	4.26e6
KaiR1D (Kainate-type ionotropic glutamate receptor subunit 1D)	DRSC15516	3.49e6	4.00e6	3.94e6
Cpr35B (Cuticular protein 35B)	DRSC01949	3.64e6	4.13e6	4.10e6
Cpr35B (Cuticular protein 35B)	DRSC22797	3.78e6	4.44e6	4.05e6
Fbw5 (F-box and WD repeat domain containing 5)	DRSC03146	3.53e6	4.16e6	3.84e6
lectin-37Db	DRSC03279	3.58e6	4.10e6	4.02e6
CG14855	DRSC14979	3.74e6	4.25e6	4.22e6
Mtr4 (Mtr4 helicase)	DRSC03560	3.18e6	3.44e6	3.72e6
Pld (Phospholipase D)	DRSC04854	3.66e6	4.16e6	3.99e6
CG42685	DRSC01971	3.65e6	4.06e6	3.95e6
ATPsynbetaL (ATP synthase, beta subunit-like)	DRSC10503	3.60e6	4.12e6	4.04e6
CG32450	DRSC11546	3.56e6	4.18e6	3.91e6
Mcm2 (Minichromosome maintenance 2)	DRSC16734	3.34e6	3.79e6	3.83e6
hui (hase und igel)	DRSC05977	3.56e6	3.99e6	4.08e6
